Data as given in PubChem BioAssay AID686943 (Drosophila RNAi Screening Center, 2013)

Test: 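Knockdowns that increase or decrease active ERK after insulin receptor stimulation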 (primary screen)
System: Drosophila S2R+ haemocyte-like cells expressing YFP-tagged ERK (Rolled)
Reagent: long dsRNA against Drosophila genes
Conditions: insulin stimulation versus unstimulated cells; dose and duration not given
Measured: 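Antibody staining for doubly phosphorylated ERK divided by ERK-YFP signal, as plate z-scores, in insulin-treated and untreated cells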
Reading the numbers: replicate 1, z-score of dpERK with insulin: higher = more active ERK per ERK-YFP after insulin
The screen tested about 23,000 reagents; shown is a random part of those that have a named target and a result. 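Extra replicates exist only for a retested subset of genes; insulin dose and duration not given; both raised and lowered dpERK matter.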 Names joined by + are all predicted targets of the reagent. Further read-outs or replicates are left out here. The record does not give: the amount of reagent, the time to read-out.

replicate 1, z-score of dpERK with insulin, by target gene and reagent
Mesh1: DRSC14433 0.04
lncRNA:CR32027: DRSC09571 -0.45
CG40045: DRSC21232 -0.02
ctp: DRSC18758 -3.04
SdhBL: DRSC20039 0.22
CCT5: DRSC07357 0.15
5-HT1B: DRSC05031 1.31; DRSC05769 -4.94
Gr89a: DRSC15023 -1.01
GramD1B: DRSC00426 0.25; DRSC00591 0.23
Fbxl7: DRSC15553 1.38
CstF50: DRSC15434 1.92
CG34461: DRSC10767 1.1
Cyp313a4: DRSC16627 0.44
D12: DRSC03311 -0.27
wde: DRSC05955 -0.18
CG10164: DRSC14197 0.24

Targets listed so far whose target name starts with C or c (7):
replicate 1, z-score of dpERK with insulin, by target gene and reagent
CG40045: DRSC21232 -0.02
ctp: DRSC18758 -3.04
CCT5: DRSC07357 0.15
CstF50: DRSC15434 1.92
CG34461: DRSC10767 1.1
Cyp313a4: DRSC16627 0.44
CG10164: DRSC14197 0.24

Further results:
replicate 1, z-score of dpERK with insulin, by target gene and reagent
CG42788: DRSC15330 1.38; DRSC16139 0.29; DRSC16152 0.52
Alg11: DRSC11647 -0.13
Dysb: DRSC10730 1.39
Moe: DRSC18684 -1.24
CG34148 + P5CDh2: DRSC13519 0.61
CG11696: DRSC19417 -0.35
lost: DRSC12002 -0.41; DRSC12234 -0.29; DRSC21987 -0.24
lncRNA:CR31526: DRSC21520 0.51
Eglp3: DRSC04293 -0.86
Pex16: DRSC11750 -0.26
CG7044: DRSC16180 -0.91
CG13737: DRSC10064 -0.16
GNBP3: DRSC11170 0.22
b6: DRSC18740 -0.3
CG31533: DRSC13018 0.35
CG9287: DRSC03186 0.76; DRSC22790 -1.26
